Data on 51 compounds can be found in PMC12040169 (PLOS Biology, 2025).

Molecules are shown by their SMILES. Some of the results follow.

The assay relates to T1, CTL2-GFP (C. trachomatis L2/434/Bu, GFP-expressing).
T1 construct: L2/434/Bu, GFP-expressing
More on the design: species or system HeLa; Intracellular C. trachomatis growth in HeLa cells, bulk GFP fluorescence relative to DMSO. The settings on record: bulk GFP, single well; 28.5 h, 10 µM; inhibitor.
On to `CCCC/C=C/c1cccc(Nc2cccnc2)n1` [CBK037645], for which the “% of control remaining” value is on record as 139.127%. For the compound `O=C(NCc1cccs1)C1(Cc2ccc(-c3ccc(F)c(F)c3)cc2)CCOCC1` [CBK285533], the “% of control remaining” value is 79.087%.

Turning to `COc1ccccc1C(=O)Nc1sc2c(c1C#N)CC(C)(C)NC2(C)C` [CBK307233], the “% of control remaining” value is 148.877%. In the case of `O=C(Nc1cccnc1)N1CCN(c2ccccc2)CC1` [CBK145043], the “% of control remaining” value is reported as 126.739%. The result for `CCc1cc(Br)ccc1S(=O)(=O)Nc1ccccc1O` [CBK043877] reads 86.7211%; that for `Cc1c(Cl)cccc1S(=O)(=O)Nc1nccnc1C(=O)O` [CBK024795], 146.471%. The result for `O=C(Cc1ccccc1)Nc1nnc(C2=COCCO2)o1` [CBK287416] reads 150.917%; that for `O=C1C2C3C=CC(C2C(=O)N1CCO)C1C2C(=O)N(CCO)C(=O)C2C31` (stereo not drawn) [CBK263016], 98.5979%.

Turning to `Cc1[nH]c(=O)[nH]c(=O)c1Cc1cccc2ccccc12` [CBK111494], the “% of control remaining” value is reported as 105.079%. The result for `CCCOc1ccc(OC(=O)COc2ccccc2)cc1` [CBK160853] reads 124.807%. As for `Cc1c(Br)c(C(F)(F)F)nn1CC(=O)NCCN1CCOCC1` [CBK018700], the “% of control remaining” value came to 123.029%. For the compound `Cn1cc(C2CCCCCN2C(=O)c2cc(C3CC3)on2)cn1` (stereo not drawn) [CBK285301], the “% of control remaining” value amounted to 124.163%.

Consider `CCC(=O)Nc1sc2c(c1-c1nc3ccccc3s1)CCCC2` [CBK287324], for which the “% of control remaining” value amounted to 168.878%. Take `COc1cc(C(c2c[nH]c3ccccc23)c2c[nH]c3ccccc23)c(Br)cc1OC(C)=O` [CBK266051]: the “% of control remaining” value is 121.085%. For the compound `Nc1ccc(S(=O)(=O)NC2(C(F)(F)F)NC(=O)N(c3ccccc3Cl)C2=O)cc1` (stereo not drawn) [CBK268003], the “% of control remaining” value is on record as 126.438%. Then `CC(C)N1CCN(c2nccnc2Cl)CC1` [CBK028901], with 115.651%; and `CC(=O)c1ccc(-c2ccc(C(=O)NCC3COc4ccccc4O3)c(N(C)C(C)=O)n2)s1` (stereo not drawn) [CBK076637], with 109.437%. In the case of `Nc1ccn([C@@H]2O[C@H](CO)[C@H](O)C2O)c(=S)n1` (stereo partly drawn) [CBK201293], the “% of control remaining” value was found to be 116.807%.

Regarding `COc1cccc(NC(=O)CCS(=O)(=O)c2cccs2)c1` [CBK071069], the “% of control remaining” value turned out to be 89.9897%.

As for `CCCN(C(=O)c1coc(COc2ccc3sc(C)nc3c2)n1)C1CC1` [CBK306878], the “% of control remaining” value came out at 131.94%. The result for `CN(C)/C=N/c1ncc2ncn(C3CC(O)C(CO)O3)c2n1` (stereo not drawn) [CBK201175] reads 168.823%; that for `Cc1nn(-c2ccccn2)c(N)c1C1CC(=O)N(c2ccc(C(=O)O)cc2)C1=O` (stereo not drawn) [CBK291180], 176.869%. Consider `O=C(N/N=C\c1cccc(O)c1)C(=O)N/N=C/c1cccc(O)c1` [CBK261962], for which the “% of control remaining” value was determined as 121.59%. Take `Cc1cc(OCC(=O)O/N=C(\N)Cc2ccc([N+](=O)[O-])cc2)ccc1Cl` [CBK264322]: the “% of control remaining” value was determined as 105.627%.

As for `COc1cc(/C=N/NC(=O)c2cccnc2)cc([N+](=O)[O-])c1O` [CBK262233], the “% of control remaining” value was found to be 100%. In the case of `COc1ccc(C(=O)N2CCC3(CCN(C(=O)/C=C/c4ccc5c(c4)OCO5)C3)C2)cc1OC` (stereo not drawn) [CBK131775], the “% of control remaining” value is listed as 93.6382%. `OCc1cc(CC2(NCc3cccc4c3OCO4)COC2)no1` [CBK289314]: the “% of control remaining” value is 178.481%. Consider `c1ccc(Oc2cccc(CN3CCC(N4CCN(c5ccccc5)CC4)CC3)c2)cc1` [CBK264662G], for which the “% of control remaining” value was found to be 137.455%. Then `O=C1Nc2ccc(-c3cccc(C(F)(F)F)c3)cc2C(=O)N2C[C@H](O)C[C@@H]12` [CBK289273], with 114.754%; and `Cc1nc2n(c1C)CCN(c1ccc3nnc(C(F)(F)F)n3n1)C2` [CBK305815], with 127.056%; and `O=C(O)c1cccc(N2C(=O)c3cccc4c(C(=O)c5ccccc5)ccc(c34)C2=O)c1` [CBK299809], with 105.336%. With `O=C(OCc1cc([N+](=O)[O-])cc2c1OCOC2)c1ccco1` [CBK297537], the “% of control remaining” value turned out to be 118.05%. Consider `Cn1c2ccccc2c2ncn(CCCO)c(=O)c21` [CBK287951], for which the “% of control remaining” value turned out to be 130.41%. For `COc1ccc(CCNC(=O)N2CCN(CCc3ccccc3)CC2)cc1OC` [CBK158915], the “% of control remaining” value is 118.759%.

Turning to `COc1ccc(CNC(=O)NC(=O)C2CCN(C(C)=O)CC2)c(OC)c1` [CBK034839], the “% of control remaining” value is listed as 106.154%. With `CC1CCCCN1C(=O)CN1C(=O)[C@H]2CCCN2C(=O)c2ccccc21` (stereo partly drawn) [CBK286320], the “% of control remaining” value came to 136.437%. With `Cc1cc(=O)cc(C(=O)NC2CCN(c3ncccc3C#N)CC2)o1` [CBK307240], the “% of control remaining” value is 118.596%. Then `O=C(C1CC1)N1C2CCC1CC(O)(Cn1ccc3ccncc31)C2` (stereo not drawn) [CBK284652], with 135.023%. Take `Cc1c(C(=O)Nc2ccc(C(=O)O)cc2)nnn1-c1ccc(Cl)cc1` [CBK300532]: the “% of control remaining” value is on record as 124.81%. Regarding `Cc1cc(C)n(CC2CCCN2CCc2ccccn2)n1` (stereo not drawn) [CBK304846], the “% of control remaining” value came to 69.5619%. As to `CNCCc1nc(-c2cccs2)c2ccccn12` [CBK035905], the “% of control remaining” value came out at 122.342%. Take `O=C(N[C@H]1C[C@H]2C(=O)NC[C@@H](CCC(=O)N3CCOCC3)N2C1)c1cccs1` [CBK289009]: the “% of control remaining” value is 134.234%. The result for `OC1(c2ccc(F)cc2)CCCC2CN(Cc3cccnc3)CC21` (stereo not drawn) [CBK284377] reads 103.966%.

Regarding `Cc1cccc(C)c1NC(=O)Nc1ccc(F)cc1F` [CBK300526], the “% of control remaining” value was 139.749%. As to `Cc1cc(NC(=O)CN(C)Cc2ccc(Br)cc2)on1` [CBK305599], the “% of control remaining” value was determined as 140.925%.

For `CCc1cccc(C)c1NC(=O)CSc1nnc(-c2cccnc2)n1C` [CBK267582], the “% of control remaining” value was 124.829%. `COc1ccccc1N1CCN(C(=O)NCCc2c[nH]cn2)CC1` [CBK155369]: the “% of control remaining” value is reported as 158.825%. The result for `CCc1c(C)nc2ccccc2c1S(=O)(=O)CCC(=O)OC` [CBK155468T] reads 112.523%; that for `Cc1cc(C)c2c(c1)COC1(CCN(Cc3ccccc3)CC1)O2` [CBK061572], 103.656%; that for `CCOc1cc(-c2cc(C(=O)O)c3ccccc3n2)ccc1O` [CBK266848], 101.544%. `O=C1NC2(CCN(C(=O)c3ccc(C(F)(F)F)c(F)c3)CC2)Oc2ccc(-c3ccccc3)cc21` [CBK115841]: the “% of control remaining” value is given as 121.571%.
